These are yes or no findings as the source states them, for the method shown. Some entries that bind do so weakly or less than the wild type.
Assays:
Settings in all cases: remark: other sources report otherwise
[1] = target: T1, AS-SPIK (Abnormal Secreted serine protease inhibitor Kazal) (Homo sapiens (Human)), P00995; assay: test of monoclonal antibodies of FIG. 1 (described in Example 1)
T1 chain: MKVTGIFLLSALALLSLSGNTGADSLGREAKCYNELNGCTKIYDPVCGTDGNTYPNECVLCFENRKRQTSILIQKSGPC

[2] = target: T1, AS-SPIK (Abnormal Secreted serine …); assay: ELISA, plate-immobilized partially purified AS-SPIK from S2-3 cells
[3] = target: T1, AS-SPIK (Abnormal Secreted serine …); assay: sandwich ELISA, S2-3 medium, complex captured on polyclonal anti-SPIK plate
[4] = target: T1, AS-SPIK (Abnormal Secreted serine …); assay: ELISA on a plate immobilised with partially purified AS-SPIK from S2-3 cells, OD450nm; antibody concentration not given

Measured: binding

B1: IM-A1 (antibody, V domains shown)
VH: QSVKESEGGLFKPTDTLTLTCTVSGFSLSSNAISWVRQAPGNGLEWIGAIGSSGSTYYASWAKSRSTVTRNTNLNTVTLKMTSLTAADTATYFCARWENIGYTNVRLDLWGQGTLVTVSSGQPKAPSVFPLAPCCGDTPSS
VL: AYDMTQTPASVEVAVGGTVTIKCQASQSISTALAWYQQKPGQPPKLLIYGASTLASGVSSRFKGSGSGTQFTLTISGVECADAATYYCQQGYSTSDVDNAFGGGTEG
binds: all assays above

B2: IM-B10 (antibody, V domains shown)
VH: QSVKESEGGLFKPTDTLTLTCTVSGFSLSSYGVSWVRQAPGKGLEWIGSIWSGGTTDYASWAKSRSTITRNTNENTVTLKVTSLTAADTATYFCARGGYDYGYASNIWGPGTLVTVSSGQPKAPS
VL: AYDMTQTPASVEVAVGGTVTIKCQASESISSYLSWYQQKPGQPPKLLIYRASTLASGVPSRFSGSGSGTEFTLTISDGQCDDAATYYCQQGYSVSNVDNIFGGGTEVVVKGDPVAPTVLIFPPSAD
binds: all assays above
